Assay results as given in US11034913B2, “Metal working fluid” (Henkel AG & Co. KGaA, priority 2015, dated 2021).
Some results were stated once for a whole list of compounds, not compound by compound. For at least one compound, name, drawing or mass did not settle the structure.

The compounds below were run on mixed Gram-negative bacteria (assay: Minimum inhibitory concentration testing (biostat candidate screening, Phase 1 and Phase 2; dip slide counts)). Conditions: result in words; 3 wt. % amine in metal working fluid.
Format: cell-based

Row | SMILES | Biostatic efficacy regarding Gram-negative bacteria compared with the DCHA standard
1 | NCC1CCCC(CN)C1 (stereo not shown) [C2, 1,3-bis(aminomethyl)cyclohexane] | lower biostatic capacity than the DCHA standard
2 | NC1CCCCC1N (stereo not shown) [C3, 1,2-cyclohexanediamine] | lower biostatic capacity than the DCHA standard
3 | CC1CCCCC1N (stereo not shown) [C5, 2-methylcyclohexylamine] | lower biostatic capacity than the DCHA standard
4 | CCNC1CCCCC1 [C6, N-ethylcyclohexylamine] | lower biostatic capacity than the DCHA standard
5 | NC1CCCCC1 [C7, Cyclohexylamine] | lower biostatic capacity than the DCHA standard
6 | NCC1CCCCC1 [C8, Aminomethylcyclohexane] | lower biostatic capacity than the DCHA standard
7 | NCCCCCCN [Comparative Example C1, 1,6-diaminohexane] | lower biostatic capacity than the DCHA standard
8 | CCCCCN [Comparative Example C4, Amylamine] | lower biostatic capacity than the DCHA standard
9 | CC(C)CCCC(C)N (stereo not shown) [Example 1, 1,5-dimethylhexylamine] | surpassed the DCHA standard
10 | CCCCC(CC)CN (stereo not shown) [Example 2, 2-ethylhexylamine] | surpassed the DCHA standard
11 | CCCCCCCN [Example 3, Heptylamine] | surpassed the DCHA standard
12 | NC1CCC(N)CC1 (stereo not shown) [Example 4, 1,4-cyclohexanediamine] | surpassed the DCHA standard
13 | CC(CN)CCCN (stereo not shown) [Example 5, Methylpentamethylene diamine] | surpassed the DCHA standard
